A word on the GI50: it is the concentration at which growth is held to half of that of the control.

The assay deals with NCI-H358 cell line. Description: proliferation assay (methylene blue assay) with NCI-H358 tumor cells. It is filed as cell-based. The note with it: Homo sapiens, read-out: Growth Inhibitory 50 (GI50).

Take `COc1cc2ncnc(Nc3ccc(F)c(Cl)c3)c2cc1OCCCN1CCOCC1` [gefitinib, reference compound]: the 50% growth inhibitory concentration (GI50) turned out to be 542 nM.
